Results are given in words; binding and its absence hold for the method and conditions named. Binding seen in cells or lysates may run through a third protein. Some binding calls cover weakened binding; strength is not graded here.
What was measured:
[1] = target: CUL5 (endogenous, human) (human (endogenous in human primary CD8+ T cells)) (UniProt Q93034); experiment: co-IP; endogenous proteins in human primary CD8 cells (NC and CUL5 KO), MG132 (20 µM) 4 h; IP with anti-CUL5 antibody, Western analysis with anti-CUL5 and anti-PCMTD2
Myc-CUL5 = Myc-CUL5 (UniProt Q9D5V5); experiment: co-IP; HEK293T cells transfected with the indicated constructs for 24 h, MG132 (20 µM) 4 h before collection; lysis in 50 mM HEPES, 150 mM NaCl, 1% Triton X-100, 0.5% NP40; IP with anti-HA, anti-Myc or anti-GFP, western blotting

Amino acid sequences for entries named in this document (tags omitted).
UniProt Q93034: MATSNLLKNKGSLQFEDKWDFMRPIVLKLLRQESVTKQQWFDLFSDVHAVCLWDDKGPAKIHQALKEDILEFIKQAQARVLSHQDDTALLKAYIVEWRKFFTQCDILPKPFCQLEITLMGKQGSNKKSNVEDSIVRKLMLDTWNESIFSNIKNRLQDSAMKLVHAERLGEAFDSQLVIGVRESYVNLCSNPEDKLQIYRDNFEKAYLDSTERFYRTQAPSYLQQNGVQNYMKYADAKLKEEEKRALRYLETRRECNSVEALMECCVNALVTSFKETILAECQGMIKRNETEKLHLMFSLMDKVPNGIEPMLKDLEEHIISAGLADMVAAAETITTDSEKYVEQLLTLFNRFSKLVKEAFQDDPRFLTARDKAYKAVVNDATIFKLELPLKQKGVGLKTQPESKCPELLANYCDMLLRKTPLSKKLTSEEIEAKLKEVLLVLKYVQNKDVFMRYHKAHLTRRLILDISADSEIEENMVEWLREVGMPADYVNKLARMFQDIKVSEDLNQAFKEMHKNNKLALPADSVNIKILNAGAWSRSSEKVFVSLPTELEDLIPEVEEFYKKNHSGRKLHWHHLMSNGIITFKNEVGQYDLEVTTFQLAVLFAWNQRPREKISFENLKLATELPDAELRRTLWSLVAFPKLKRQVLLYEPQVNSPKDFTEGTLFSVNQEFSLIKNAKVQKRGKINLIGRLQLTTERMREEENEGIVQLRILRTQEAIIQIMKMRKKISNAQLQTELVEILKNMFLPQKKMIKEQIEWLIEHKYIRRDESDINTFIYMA
UniProt Q9D5V5: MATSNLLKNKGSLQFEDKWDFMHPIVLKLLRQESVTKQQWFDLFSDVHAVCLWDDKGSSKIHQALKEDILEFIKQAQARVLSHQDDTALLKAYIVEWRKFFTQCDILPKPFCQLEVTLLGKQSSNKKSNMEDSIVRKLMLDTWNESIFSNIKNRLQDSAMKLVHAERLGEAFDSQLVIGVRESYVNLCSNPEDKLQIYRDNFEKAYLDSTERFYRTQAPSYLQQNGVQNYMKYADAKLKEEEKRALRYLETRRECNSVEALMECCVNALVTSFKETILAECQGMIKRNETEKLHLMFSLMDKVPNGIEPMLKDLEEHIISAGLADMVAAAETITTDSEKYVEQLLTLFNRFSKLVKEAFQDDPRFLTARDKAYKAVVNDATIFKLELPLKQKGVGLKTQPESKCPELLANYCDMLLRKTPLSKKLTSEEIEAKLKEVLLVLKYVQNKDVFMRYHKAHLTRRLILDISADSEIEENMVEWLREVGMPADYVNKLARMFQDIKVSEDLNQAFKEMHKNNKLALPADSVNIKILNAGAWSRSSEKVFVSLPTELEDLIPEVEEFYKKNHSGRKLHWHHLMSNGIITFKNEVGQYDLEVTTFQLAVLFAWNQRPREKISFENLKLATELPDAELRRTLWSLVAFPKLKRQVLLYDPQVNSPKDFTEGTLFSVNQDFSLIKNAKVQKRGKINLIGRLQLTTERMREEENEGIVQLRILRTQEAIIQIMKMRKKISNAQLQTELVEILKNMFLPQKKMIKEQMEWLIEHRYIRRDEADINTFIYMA
UniProt Q9NV79: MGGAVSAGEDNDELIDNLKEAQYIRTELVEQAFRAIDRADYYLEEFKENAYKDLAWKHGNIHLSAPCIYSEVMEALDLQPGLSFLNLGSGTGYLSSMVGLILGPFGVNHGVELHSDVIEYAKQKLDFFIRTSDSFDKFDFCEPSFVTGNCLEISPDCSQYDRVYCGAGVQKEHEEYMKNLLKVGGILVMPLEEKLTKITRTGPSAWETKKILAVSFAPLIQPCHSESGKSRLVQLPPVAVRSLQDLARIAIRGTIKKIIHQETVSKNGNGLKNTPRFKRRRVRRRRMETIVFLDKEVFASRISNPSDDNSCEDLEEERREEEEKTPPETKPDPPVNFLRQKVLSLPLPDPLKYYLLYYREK
UniProt Q8BHD8: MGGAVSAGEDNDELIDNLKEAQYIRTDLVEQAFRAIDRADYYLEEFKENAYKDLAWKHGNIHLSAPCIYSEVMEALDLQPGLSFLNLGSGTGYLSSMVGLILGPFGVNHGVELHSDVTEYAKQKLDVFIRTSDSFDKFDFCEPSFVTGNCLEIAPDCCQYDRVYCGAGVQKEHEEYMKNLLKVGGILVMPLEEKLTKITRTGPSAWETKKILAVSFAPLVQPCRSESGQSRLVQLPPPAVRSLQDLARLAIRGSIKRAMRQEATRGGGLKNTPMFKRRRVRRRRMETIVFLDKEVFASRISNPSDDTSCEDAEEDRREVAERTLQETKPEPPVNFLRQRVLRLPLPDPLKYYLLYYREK

binding [1]	binding (Myc-CUL5)	Substance
binds	–	PCMTD2 (endogenous, human) (from UniProt Q9NV79 1-361)
–	binds	HA-PCMTD2 (from UniProt Q8BHD8 1-359)

— paper PMC10798966
